# Measured data: PubChem BioAssay AID1671195 (Yale University, 2021)
# Purpose: 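Knockdowns that increase or decrease uptake of fluorescent LDL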 (primary screen)
# Cell system: human Huh7 hepatoma cells
# Reagents: siRNA pool against human genes, 18 nM
# Time to read-out: about 2 to 2.5 days of knockdown, then 8 h LDL uptake
# Conditions: DiI-labelled LDL at 30 µg/ml for 8 h, in lipoprotein-deficient serum medium
# Read-out: 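Per-cell DiI-LDL intensity by automated imaging; well means scaled to the plate median and given as a robust z-score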
# Reading the numbers: robust z-score: higher = more LDL uptake after knockdown
# Call rule: 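Active when two or more replicates show a robust z-score above 2 or below -2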
# This is a random part of about 22,000 reagents tested. In the full data, about 1,510 (6.9%) are marked active. 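Active includes knockdowns raising or lowering LDL uptake; positive z-scores mean more uptake, negative mean less.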 A number with no mark means an inactive call.
gene knocked down,"robust z-score, replicate 1","robust z-score, replicate 2","robust z-score, replicate 3"
TUSC3 (tumor suppressor candidate 3),0.295,0.845,0.852
"POTEKP (POTE ankyrin domain family member K, pseudogene)",-1.9,0.459,0.421
PDE4C (phosphodiesterase 4C),1.04,0.751,0.772
GLT6D1 (glycosyltransferase 6 domain containing 1),-0.175,0.0282,-0.344
INHBB (inhibin subunit beta B),0.698,-0.591,0.46
RPL35P7 (ribosomal protein L35 pseudogene 7),-0.902,-0.879,-1.1
CDC27 (cell division cycle 27),0.867,0.54,0.321
EFCAB7 (EF-hand calcium binding domain 7),0.132,1.59,-0.114
ADI1 (acireductone dioxygenase 1),1.53,0.959,0.671
TLR8 (toll like receptor 8),-0.533,-0.92,-0.811
MIR29B2CHG (MIR29B2 and MIR29C host gene),0.496,0.7,0.75
RPP25L (ribonuclease P/MRP subunit p25 like),-0.867,-1.07,-0.347
SGIP1 (SH3GL interacting endocytic adaptor 1),0.555,-0.11,-0.572

Just “robust z-score, replicate 2”, for 2 of the entries above:
POTEKP (POTE ankyrin domain family member K, pseudogene): 0.459
PDE4C (phosphodiesterase 4C): 0.751

More reagents follow.
gene knocked down,"robust z-score, replicate 1","robust z-score, replicate 2","robust z-score, replicate 3"
BLVRB (biliverdin reductase B),0.303,0.00909,0.174
ERAS (ES cell expressed Ras),-1.23,-0.524,0.335
CFB (complement factor B),-0.621,0.0671,0.0439
NACC1 (nucleus accumbens associated 1),-0.651,-0.502,-0.98
KBTBD2 (kelch repeat and BTB domain containing 2),-0.252,-0.109,-1.16
BUB1B (BUB1 mitotic checkpoint serine/threonine kinase B),0.0535,-1.11,0.518
KCTD3 (potassium channel tetramerization domain containing 3),-0.232,-0.975,-0.01
MITF (melanocyte inducing transcription factor),1.67,0.525,1.33
MRPS27 (mitochondrial ribosomal protein S27),-1.41,-1.18,-0.937
DNAJC27-AS1 (DNAJC27 antisense RNA 1),1.6,0.654,1.17
RNASEH2C (ribonuclease H2 subunit C),2.64 (active),2.57,2.77
OR51D1 (olfactory receptor family 51 subfamily D member 1),0.565,0.544,0.431
SH3BP5 (SH3 domain binding protein 5),-1.26,-0.381,-1.75
AGK (acylglycerol kinase),-0.288,0.58,0.417
SERPINB5 (serpin family B member 5),-1.49,0.342,-1.5
